# From paper PMC7819943, “Rice protein-binding microarrays: a tool to detect cis-acting elements near promoter regions in rice”
# The chains behind the UniProt entries cited, without tags or fusion partners.
# UniProt Q0JBA9, entry or part of it: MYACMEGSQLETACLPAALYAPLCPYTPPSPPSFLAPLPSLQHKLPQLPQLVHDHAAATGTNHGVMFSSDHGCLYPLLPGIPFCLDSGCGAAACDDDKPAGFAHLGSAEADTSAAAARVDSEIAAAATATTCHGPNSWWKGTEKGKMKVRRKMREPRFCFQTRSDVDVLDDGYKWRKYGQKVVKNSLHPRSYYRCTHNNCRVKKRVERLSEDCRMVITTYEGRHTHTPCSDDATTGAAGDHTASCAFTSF
# The other results are listed elsewhere or left out.
# Biological target: OsWRKY34 (Oryza sativa, UniProt Q0JBA9 1-250)
# Assay: protein-binding microarray (RPBM); PBS, 2% BSA, 51.3 ng/ul salmon testes DNA, 50 uM zinc acetate, 200 nM TF, 25 C, 1 h; high values mean tight binding
# Conditions: protein: recombinant; tags: N-terminal polyhistidine and DsRed monomer fusion (pET32a); label: CyDye5-dUTP incorporated in the synthesized complementary strand; 3' TTTTT single-stranded linker to array surface; dsDNA, one strand shown
# How it was run: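 An Axon 4000B scanner gave the binding signal as per-feature fluorescence intensity in arbitrary units. This followed washing of a custom Agilent array that had been incubated for 1 h at 25 °C with 200 nM protein in PBS, 2% BSA, salmon testes DNA and 50 µM zinc acetate. The proteins were transcription factors fused at the N-terminus to polyhistidine and DsRed, expressed in E. coli BL21-CodonPlus and purified on Ni–NTA.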
row,Sequence,binding signal
1,GCTAACATGTTCCGCTGTCTCGCCCATGCTAGGTATCATCCGGAGTCACCTAGTGCAG,10800 fluorescence intensity (a.u.)
2,TTTCTTCCTTTTTGGCCCAATCCCTTTTCTTTTATCTTCTCGGAGTCACCTAGTGCAG,13400 fluorescence intensity (a.u.)
3,TCCATGCGGGACTTAACTGAACATCATCTAATTTTTTTTACGGAGTCACCTAGTGCAG,8990 fluorescence intensity (a.u.)
4,TGTGCACGTCAGTCTGACGCCTCAATCCTTCCCGTGCACACGGAGTCACCTAGTGCAG,9050 fluorescence intensity (a.u.)
5,ATTGGGTTGATGGGAGGTGTTTCTCGGCTTAGAGGGATGGCGGAGTCACCTAGTGCAG,12900 fluorescence intensity (a.u.)
6,GGGGAAATTGTACTCGTAGCTCTGTAAGGGCTGGATCACGCGGAGTCACCTAGTGCAG,9410 fluorescence intensity (a.u.)
7,TGAGGTAGATAGGCGGTGGGATATGTGCGGCCTGCGGGGACGGAGTCACCTAGTGCAG,11300 fluorescence intensity (a.u.)
8,CGTCTCGTCCGCGACACCCCGGCCCCAATTCCAACACGCGCGGAGTCACCTAGTGCAG,9080 fluorescence intensity (a.u.)
9,ACGTTTCTTTTATAGGCATTCAACGAGTAGATCTCTAACCCGGAGTCACCTAGTGCAG,9600 fluorescence intensity (a.u.)
10,CACCAAACATATTTTCGCGCCCAATTGTCGTTTCCGCACGCGGAGTCACCTAGTGCAG,12000 fluorescence intensity (a.u.)
11,CATCCACAACTTCTTTGCCTGCCTGCTGTTCCTTTTAGTTCGGAGTCACCTAGTGCAG,9460 fluorescence intensity (a.u.)
12,AAAGCCCACCATCTTAATTGGCCTCTCACTCCTTTGCTCCCGGAGTCACCTAGTGCAG,9010 fluorescence intensity (a.u.)
13,GCGTTTGGTGATCCATGCTATAGCTTACACTGCTCTATGACGGAGTCACCTAGTGCAG,8100 fluorescence intensity (a.u.)
14,GGTAGCTGCCGTGCTGGGCGATCGGCGTTTGCGTTCGCTCCGGAGTCACCTAGTGCAG,8430 fluorescence intensity (a.u.)
15,AAAATTATTCATGGGTTTTCCCTTTTCTTGCGGTTTTAGACGGAGTCACCTAGTGCAG,9070 fluorescence intensity (a.u.)
16,ATGCTGAAGGCCTTGGTAGGAATAAGTCTATATTGCTTCCCGGAGTCACCTAGTGCAG,11000 fluorescence intensity (a.u.)
17,TCGTCGTTGGTGATTTTGCAAAAACACCCTTCATTTACTTCGGAGTCACCTAGTGCAG,8890 fluorescence intensity (a.u.)
18,GCATTTCATGGGTTCGTAGTTCGTTCGTTGTTTAATTTCCCGGAGTCACCTAGTGCAG,8360 fluorescence intensity (a.u.)
19,AACTTTCGTACACACAAACTTTTAACTTTTTCATCACATCCGGAGTCACCTAGTGCAG,8230 fluorescence intensity (a.u.)
20,CATTGTATTCCTCAGCGTTCATCCTAGTCTTCAAAATCCCCGGAGTCACCTAGTGCAG,8480 fluorescence intensity (a.u.)
21,AGCAAGGTCGTTGTTTTGGTTGATGGCTAAGTTCACCACTCGGAGTCACCTAGTGCAG,10200 fluorescence intensity (a.u.)

row,Sequence,binding signal
1,GTGTGGCATGGTTCAAATTCTCCCTTTTTTTTTTTTCTCTCGGAGTCACCTAGTGCAG,10800 fluorescence intensity (a.u.)
2,ACACGAACTCGGATTGTTAATAATCTTTTACTACTCCTATCGGAGTCACCTAGTGCAG,8090 fluorescence intensity (a.u.)
3,GCTTTTTTTTTTTCTTTCTTTCTTTTTCCCCTTCGGCTTCCGGAGTCACCTAGTGCAG,12500 fluorescence intensity (a.u.)
4,ACCATTAACAAATCAATCCGAGCATTTTCTTTCTTTTGATCGGAGTCACCTAGTGCAG,8060 fluorescence intensity (a.u.)
5,AATAGGGAAGCCCCACGTGTGTTAATTGTCATCGATTTCCCGGAGTCACCTAGTGCAG,9660 fluorescence intensity (a.u.)
6,ACTCTCCCTTTCCCACGTCCTTACCCGCACGAATCGCGAACGGAGTCACCTAGTGCAG,9530 fluorescence intensity (a.u.)
7,TGAATTTTTTTTCGAAACCGAACTCTTCCATCAATTCCTTCGGAGTCACCTAGTGCAG,9450 fluorescence intensity (a.u.)
8,ATGCCAGGATTTCAGTCCAGTCTTGTTCGGTTAATACCTACGGAGTCACCTAGTGCAG,8450 fluorescence intensity (a.u.)
9,ACTCACTCTCACTCACTCGGACTCCTCACCCGCTAGCTACCGGAGTCACCTAGTGCAG,11600 fluorescence intensity (a.u.)
10,GTGTATGATGCCGTTGACTTTTTATCCAACGTTTGACCATCGGAGTCACCTAGTGCAG,38800 fluorescence intensity (a.u.)
11,AATCTCCGTGGCGAGGGTGGGGTCGGAGGTGGTCATGTCGCGGAGTCACCTAGTGCAG,9290 fluorescence intensity (a.u.)
12,TAGTTTGCTGCAACATTAGCATCATATTTCAGTTTGTTGTCGGAGTCACCTAGTGCAG,8340 fluorescence intensity (a.u.)
13,GTTGACTTTTTTTCACATGTTTGACCATTCATCTTATTCACGGAGTCACCTAGTGCAG,13400 fluorescence intensity (a.u.)
14,AATTTTCAGTTGAAAGAAGGATTGGGGTGCGTTTGGTTCTCGGAGTCACCTAGTGCAG,8360 fluorescence intensity (a.u.)
15,TGTATGCATGCTCTGTGCTTTGATATTTTACGTTTTCACACGGAGTCACCTAGTGCAG,8730 fluorescence intensity (a.u.)
16,GGGACTAGGGTTACGACGGCTGTGGGGTGGCTTCACTGATCGGAGTCACCTAGTGCAG,8460 fluorescence intensity (a.u.)
17,CTCATTTTTTTAATGTGATGGTTCTGTATTATCTGATCAACGGAGTCACCTAGTGCAG,8060 fluorescence intensity (a.u.)
18,AATCCAACGCCCGGTCCCGCTGCATGTTCCTGCGCTCAGTCGGAGTCACCTAGTGCAG,8850 fluorescence intensity (a.u.)
19,TGTCTTTATGATGTTTGGTTGATTTTGTTTCATCCGATTTCGGAGTCACCTAGTGCAG,9010 fluorescence intensity (a.u.)
20,CACGCACCAAACAACAGGGTGGGTTCAGGATTTGAGATAGCGGAGTCACCTAGTGCAG,8060 fluorescence intensity (a.u.)
21,GAGGAAAGTCGCCTCCTTCGTGTCCCACTTTGTCCATGTACGGAGTCACCTAGTGCAG,8340 fluorescence intensity (a.u.)

row,Sequence,binding signal
1,CCATTAGCCCACTAGATTTTTTGCCACCCACGGCCCAGCCCGGAGTCACCTAGTGCAG,9060 fluorescence intensity (a.u.)
2,ATTCTATTGTTAACGCCGTTGATTTTTAATGTAAGTTTAACGGAGTCACCTAGTGCAG,10500 fluorescence intensity (a.u.)
3,CTCCCATCCTTGCTGAGTTCTTGTGCTGCTTCTTCCACAACGGAGTCACCTAGTGCAG,11100 fluorescence intensity (a.u.)
4,ATTCCTTCCATTGGCTTGCTGCTTCCTGGTACATCCTTTTCGGAGTCACCTAGTGCAG,11300 fluorescence intensity (a.u.)
5,ATCAGGTCAGGCTTCGATCCCCATTCGCTCGTGCTCTCGTCGGAGTCACCTAGTGCAG,8590 fluorescence intensity (a.u.)
6,AGTTGGCTATAGATCTATAGACCGCCTTTTCGCCTGTCTGCGGAGTCACCTAGTGCAG,8930 fluorescence intensity (a.u.)
7,TCCAAATCTCCATCAGCGCTTGCCCAAGGACATCCTCTCACGGAGTCACCTAGTGCAG,9210 fluorescence intensity (a.u.)
8,GTCTACCTCTGCTGCTTATCTGAAATTTCGGAGTCTGAACCGGAGTCACCTAGTGCAG,10400 fluorescence intensity (a.u.)
9,CCCTCCGATCACCGTGCAGCGCAGAATGCCAGAATCTCTCCGGAGTCACCTAGTGCAG,8270 fluorescence intensity (a.u.)
10,TGGAGTACCTTCACTTGACATGTCTTACGGAACAAGTAATCGGAGTCACCTAGTGCAG,8430 fluorescence intensity (a.u.)
11,CACCGCCTCACCTCACCGCCGGCGAGACCACCCACCGCCGCGGAGTCACCTAGTGCAG,8420 fluorescence intensity (a.u.)
12,GTCCCTCGCGCCGTCACCACCTGCTCTGTCTCCTCTCCTTCGGAGTCACCTAGTGCAG,10700 fluorescence intensity (a.u.)
13,AGTTACTAGTATCTCTTTTCCTTTTATTTTTCATTTTTCCCGGAGTCACCTAGTGCAG,9490 fluorescence intensity (a.u.)
14,GCTCCACGCTCAACTTAGATCGCCACCATTGACAGCGAACCGGAGTCACCTAGTGCAG,8160 fluorescence intensity (a.u.)
15,AGTAGCACCACCACCTCGTCGGCCTGTCAAGGCTGATACACGGAGTCACCTAGTGCAG,10900 fluorescence intensity (a.u.)
16,CACACACACACTCTCTCCGCACCAAAACCACTAAAACCAACGGAGTCACCTAGTGCAG,9730 fluorescence intensity (a.u.)
17,TGAATCCATTTTATCTTTTTTTTTCTTATTAAAATTTTTCCGGAGTCACCTAGTGCAG,8110 fluorescence intensity (a.u.)
18,TTAAAATTTCCCGGTGTCATGTTGCAGGTTCTTCAGTCCACGGAGTCACCTAGTGCAG,8950 fluorescence intensity (a.u.)
19,GAGAGACAATTGACTGGACTTTTGTCGTGTTGACCACAGCCGGAGTCACCTAGTGCAG,9220 fluorescence intensity (a.u.)
20,GTGCATTGTATTGAGTGGCATTTTATCTTAACACAACCTACGGAGTCACCTAGTGCAG,9570 fluorescence intensity (a.u.)
21,GGGTTCATTAATTTTCTTTTTACCTCATAGGGGAAACAAACGGAGTCACCTAGTGCAG,8410 fluorescence intensity (a.u.)

row,Sequence,binding signal
1,TTTCTCTCCTTGCTCACCTGCGCCGCCGCACATCGCAACCCGGAGTCACCTAGTGCAG,11200 fluorescence intensity (a.u.)
2,CTATATATGAACAAATTCCTGGCCATCTCTTTCCATTCTCCGGAGTCACCTAGTGCAG,8470 fluorescence intensity (a.u.)
3,GCACGTTGTAGTAGATATTTTCCTTTCTCTGCTTACATAACGGAGTCACCTAGTGCAG,9320 fluorescence intensity (a.u.)
4,TTGTGTTATTCATGTCATAATGTATTCATGCTCTTGGATTCGGAGTCACCTAGTGCAG,9850 fluorescence intensity (a.u.)
5,GTTTGATTTTGTGCTGTTAATACCCTTTTTGCTTCAGGACCGGAGTCACCTAGTGCAG,10400 fluorescence intensity (a.u.)
6,CGGGGCGGCTGGCTTGACGCGTCATCTTCCCCGCGAAAATCGGAGTCACCTAGTGCAG,14000 fluorescence intensity (a.u.)
7,CTTTCCTGTGTCGTTTCTAACTTTCCATGCCGAAGTTATACGGAGTCACCTAGTGCAG,12200 fluorescence intensity (a.u.)
8,TCATCTCTAGCTGGAATCACATCTCTTAGCTTGTTTTATGCGGAGTCACCTAGTGCAG,8740 fluorescence intensity (a.u.)
9,AGTTCCTTACCTTCGTCTCCCGAGATATTCACTTTCTTATCGGAGTCACCTAGTGCAG,9710 fluorescence intensity (a.u.)
10,AACTGTTGCGTTTACATGGCCCCACATCGCTCCGCGTCATCGGAGTCACCTAGTGCAG,8610 fluorescence intensity (a.u.)
11,AGTGTACCATAACTACTTTCAGTTTATTTTGTTCTTTTTACGGAGTCACCTAGTGCAG,8790 fluorescence intensity (a.u.)
12,GCTATCGATCATCAAGCTTTCTACCCCGACCGACGAGGAACGGAGTCACCTAGTGCAG,10800 fluorescence intensity (a.u.)
13,TCCTTCTTGCGTAATCCTGCAGATTGATCCTGAAATTTATCGGAGTCACCTAGTGCAG,8440 fluorescence intensity (a.u.)
14,TTGTTGTTGTTGCTTATCATCTTGTTAACACAGTGCTGTTCGGAGTCACCTAGTGCAG,10900 fluorescence intensity (a.u.)
15,GCTTGCATCGTCTTGAAAAAAGTCTATTTTATATATTTTTCGGAGTCACCTAGTGCAG,8180 fluorescence intensity (a.u.)
16,ACCTACGCCAGCCACCACGACCATCCATCCTCTGCTGCACCGGAGTCACCTAGTGCAG,8390 fluorescence intensity (a.u.)
17,TCAACATGTCCTTTATAGTGGTACAGTTTCTCGCTCATGTCGGAGTCACCTAGTGCAG,8570 fluorescence intensity (a.u.)
18,TTACCATGCCACTCTTGACTTCTCGTTTCATTTGCACTGTCGGAGTCACCTAGTGCAG,12700 fluorescence intensity (a.u.)
19,TACTTTTCTTATCCTTTTGCCTGCCATCTGTGCATGGAATCGGAGTCACCTAGTGCAG,9160 fluorescence intensity (a.u.)
20,TCCTACCTATATTAGGCTCCCATTTGTGTTCCCATTTGCCCGGAGTCACCTAGTGCAG,9030 fluorescence intensity (a.u.)
21,GCCTAGATGCTCGTTTTTTTTTTCTCTTTTGTTTGTCACGCGGAGTCACCTAGTGCAG,8750 fluorescence intensity (a.u.)
